# Results: the supplement of paper PMC6411743
# ± gives the standard deviation of the averaged measurements. The list shows a part of the results, in another mix than the full data.
# Legend:
# Assay in all cases: NP40-soluble protein abundance relative to vehicle (solubility fold change) (ratio); higher = more soluble protein in presence of ATP
# [1] = molecular target: T1, SEMA4D (UniProt Q92854)
# T1 sequence (whole entry): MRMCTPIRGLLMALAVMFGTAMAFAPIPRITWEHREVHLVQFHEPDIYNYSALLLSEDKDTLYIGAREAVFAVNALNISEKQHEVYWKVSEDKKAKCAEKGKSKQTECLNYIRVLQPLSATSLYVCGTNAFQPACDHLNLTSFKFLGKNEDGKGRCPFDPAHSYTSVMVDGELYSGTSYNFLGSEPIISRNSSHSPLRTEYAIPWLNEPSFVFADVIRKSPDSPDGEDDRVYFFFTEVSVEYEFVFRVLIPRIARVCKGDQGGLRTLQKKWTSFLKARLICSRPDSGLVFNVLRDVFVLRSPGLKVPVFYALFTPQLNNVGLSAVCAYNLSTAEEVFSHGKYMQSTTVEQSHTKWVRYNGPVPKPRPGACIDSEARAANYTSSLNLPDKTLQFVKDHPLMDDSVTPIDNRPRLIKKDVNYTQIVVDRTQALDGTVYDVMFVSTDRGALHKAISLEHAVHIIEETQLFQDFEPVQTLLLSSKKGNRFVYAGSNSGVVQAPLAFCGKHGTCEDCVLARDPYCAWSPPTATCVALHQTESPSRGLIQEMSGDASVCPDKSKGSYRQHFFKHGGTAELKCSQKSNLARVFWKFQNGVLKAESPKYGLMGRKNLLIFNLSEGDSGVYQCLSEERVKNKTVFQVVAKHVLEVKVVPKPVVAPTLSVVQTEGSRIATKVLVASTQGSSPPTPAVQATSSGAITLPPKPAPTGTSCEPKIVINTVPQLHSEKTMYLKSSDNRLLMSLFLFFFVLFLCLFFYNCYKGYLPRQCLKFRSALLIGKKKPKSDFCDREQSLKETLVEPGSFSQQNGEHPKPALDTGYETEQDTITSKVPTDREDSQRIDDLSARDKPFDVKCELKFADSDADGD
# In short: (§1)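 Data come from three independent experiments in which Dounce-homogenised Jurkat crude lysate was treated at eight concentrations from 0.1 to 10 mM. Treatment ran 10 min at room temperature and then 3 min at 37 °C, after which 0.8% NP40 and benzonase were added for 60 min at 4 °C before ultracentrifugation. The supernatant underwent TMT labelling and LC-MS/MS, and vsn-normalised intensities were expressed as fold change against the detergent-processed vehicle in each replicate.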
# [2] = molecular target: T2, SYMPK (UniProt Q92797)
# T2 sequence (whole entry): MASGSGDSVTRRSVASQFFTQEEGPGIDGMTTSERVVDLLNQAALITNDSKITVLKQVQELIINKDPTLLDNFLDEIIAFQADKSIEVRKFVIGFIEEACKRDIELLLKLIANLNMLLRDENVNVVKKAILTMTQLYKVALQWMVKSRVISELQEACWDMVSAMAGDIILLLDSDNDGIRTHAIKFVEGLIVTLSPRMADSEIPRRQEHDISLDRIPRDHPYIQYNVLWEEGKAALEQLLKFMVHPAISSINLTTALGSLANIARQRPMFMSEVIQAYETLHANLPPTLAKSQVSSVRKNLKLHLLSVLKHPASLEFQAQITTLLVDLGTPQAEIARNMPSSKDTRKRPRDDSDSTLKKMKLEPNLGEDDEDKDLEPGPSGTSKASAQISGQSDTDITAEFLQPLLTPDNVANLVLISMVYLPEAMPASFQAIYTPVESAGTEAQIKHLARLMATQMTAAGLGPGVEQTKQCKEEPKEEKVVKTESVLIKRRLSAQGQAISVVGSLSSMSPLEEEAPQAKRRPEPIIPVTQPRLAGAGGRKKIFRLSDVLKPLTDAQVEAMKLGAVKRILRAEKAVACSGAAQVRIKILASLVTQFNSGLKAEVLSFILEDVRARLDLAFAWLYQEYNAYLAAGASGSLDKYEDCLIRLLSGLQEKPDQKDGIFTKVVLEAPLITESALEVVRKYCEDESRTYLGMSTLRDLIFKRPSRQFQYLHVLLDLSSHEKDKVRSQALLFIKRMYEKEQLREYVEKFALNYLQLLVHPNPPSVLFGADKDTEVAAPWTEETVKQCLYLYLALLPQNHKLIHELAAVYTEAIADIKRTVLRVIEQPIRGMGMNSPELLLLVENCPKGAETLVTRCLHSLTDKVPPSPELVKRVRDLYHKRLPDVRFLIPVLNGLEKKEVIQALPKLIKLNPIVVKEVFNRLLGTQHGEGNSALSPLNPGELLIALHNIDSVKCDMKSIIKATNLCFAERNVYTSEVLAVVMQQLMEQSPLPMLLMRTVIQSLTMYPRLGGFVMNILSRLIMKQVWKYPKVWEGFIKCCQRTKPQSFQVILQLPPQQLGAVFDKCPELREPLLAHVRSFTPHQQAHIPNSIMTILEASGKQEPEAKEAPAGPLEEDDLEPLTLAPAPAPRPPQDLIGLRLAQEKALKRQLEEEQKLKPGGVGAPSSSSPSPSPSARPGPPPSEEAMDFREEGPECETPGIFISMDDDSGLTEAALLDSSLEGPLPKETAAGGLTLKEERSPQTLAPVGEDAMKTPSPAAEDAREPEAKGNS
# In short: as §1
# [3] = molecular target: T3, UBLCP1 (UniProt Q8WVY7)
# T3 sequence (whole entry): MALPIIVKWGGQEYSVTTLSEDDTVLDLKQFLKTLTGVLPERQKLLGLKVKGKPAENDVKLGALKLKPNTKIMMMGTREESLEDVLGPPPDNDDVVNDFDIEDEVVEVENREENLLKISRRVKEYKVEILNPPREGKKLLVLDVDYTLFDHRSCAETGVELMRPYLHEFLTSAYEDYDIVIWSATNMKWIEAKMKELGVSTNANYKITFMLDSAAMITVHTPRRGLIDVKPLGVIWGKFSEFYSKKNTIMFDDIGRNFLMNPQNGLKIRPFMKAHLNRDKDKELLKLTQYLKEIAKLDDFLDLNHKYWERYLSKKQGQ
# In short: as §1
# [4] = molecular target: T4, UniProt Q8TBA6 and related entries
# T4 sequence (whole entry): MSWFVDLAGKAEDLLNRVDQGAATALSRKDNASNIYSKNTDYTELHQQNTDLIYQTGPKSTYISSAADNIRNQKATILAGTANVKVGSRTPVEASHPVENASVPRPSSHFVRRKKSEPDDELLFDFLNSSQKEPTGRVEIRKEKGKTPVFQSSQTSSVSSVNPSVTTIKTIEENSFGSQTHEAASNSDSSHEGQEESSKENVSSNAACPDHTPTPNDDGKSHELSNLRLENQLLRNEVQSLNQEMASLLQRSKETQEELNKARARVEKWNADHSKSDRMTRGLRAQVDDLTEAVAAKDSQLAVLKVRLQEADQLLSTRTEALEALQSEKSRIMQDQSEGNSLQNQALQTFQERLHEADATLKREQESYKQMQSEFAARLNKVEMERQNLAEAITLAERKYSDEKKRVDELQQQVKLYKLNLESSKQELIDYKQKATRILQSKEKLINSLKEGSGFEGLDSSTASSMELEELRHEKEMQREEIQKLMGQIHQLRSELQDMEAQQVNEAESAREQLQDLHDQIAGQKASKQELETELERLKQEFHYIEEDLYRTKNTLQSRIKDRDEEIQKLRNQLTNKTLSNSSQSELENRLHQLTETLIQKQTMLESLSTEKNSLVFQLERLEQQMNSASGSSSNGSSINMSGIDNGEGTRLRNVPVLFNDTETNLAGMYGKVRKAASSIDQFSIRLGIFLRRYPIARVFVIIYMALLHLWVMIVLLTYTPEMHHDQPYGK
# In short: as §1
# [5] = molecular target: T5, UniProt Q8WWW0-2
# T5 sequence (whole entry): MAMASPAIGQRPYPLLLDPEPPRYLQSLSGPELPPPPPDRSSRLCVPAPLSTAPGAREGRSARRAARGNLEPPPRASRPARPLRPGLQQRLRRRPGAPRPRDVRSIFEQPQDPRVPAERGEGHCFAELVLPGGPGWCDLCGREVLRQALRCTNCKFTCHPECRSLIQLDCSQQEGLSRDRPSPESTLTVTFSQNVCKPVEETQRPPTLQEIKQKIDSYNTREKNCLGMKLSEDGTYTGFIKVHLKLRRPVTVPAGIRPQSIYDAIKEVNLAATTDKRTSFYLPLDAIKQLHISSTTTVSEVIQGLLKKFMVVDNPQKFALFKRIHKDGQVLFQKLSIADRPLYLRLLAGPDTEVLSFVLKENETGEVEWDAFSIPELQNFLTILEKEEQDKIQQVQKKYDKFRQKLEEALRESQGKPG
# In short: as §1
# [6] = molecular target: T6, UniProt Q8WYQ5 and related entries
# T6 sequence (whole entry): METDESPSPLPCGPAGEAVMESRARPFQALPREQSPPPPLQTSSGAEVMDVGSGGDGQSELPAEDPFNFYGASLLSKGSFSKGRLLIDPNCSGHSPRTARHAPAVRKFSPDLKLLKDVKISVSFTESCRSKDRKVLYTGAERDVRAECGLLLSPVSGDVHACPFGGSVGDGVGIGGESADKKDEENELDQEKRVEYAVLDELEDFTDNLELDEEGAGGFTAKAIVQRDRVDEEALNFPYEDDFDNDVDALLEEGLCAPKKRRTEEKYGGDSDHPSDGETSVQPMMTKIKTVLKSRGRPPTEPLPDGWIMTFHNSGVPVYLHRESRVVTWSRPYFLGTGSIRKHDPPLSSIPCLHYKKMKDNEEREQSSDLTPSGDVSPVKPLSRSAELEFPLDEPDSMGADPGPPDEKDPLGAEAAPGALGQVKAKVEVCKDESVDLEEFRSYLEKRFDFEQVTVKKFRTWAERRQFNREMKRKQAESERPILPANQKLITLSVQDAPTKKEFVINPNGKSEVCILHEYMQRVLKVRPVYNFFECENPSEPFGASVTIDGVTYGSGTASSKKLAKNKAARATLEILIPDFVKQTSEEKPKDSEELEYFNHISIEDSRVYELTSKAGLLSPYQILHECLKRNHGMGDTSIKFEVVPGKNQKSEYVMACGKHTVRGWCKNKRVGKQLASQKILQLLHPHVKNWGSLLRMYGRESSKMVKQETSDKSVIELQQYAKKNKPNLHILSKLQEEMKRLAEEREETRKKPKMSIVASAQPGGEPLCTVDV
# In short: as §1
structure (smiles),measurement,setting,value
Nc1ncnc2c1ncn2[C@@H]1O[C@H](COP(=O)(O)OP(=O)(O)OP(=O)(O)O)[C@@H](O)[C@H]1O [adenosine triphosphate],NP40-soluble protein abundance,[1]; concentration: 1mM,0.934 ± 0.041
same,NP40-soluble protein abundance,[1]; concentration: 2mM,0.956 ± 0.025
same,NP40-soluble protein abundance,[1]; concentration: 4mM,0.9109 ± 0.0088
same,NP40-soluble protein abundance,[1]; concentration: 6mM,0.971 ± 0.03
same,NP40-soluble protein abundance,[1]; concentration: 8mM,0.904 ± 0.025
same,NP40-soluble protein abundance,[1]; concentration: 10mM,0.886 ± 0.03
same,NP40-soluble protein abundance,[2]; concentration: 1mM,1.01 ± 0.013
same,NP40-soluble protein abundance,[2]; concentration: 2mM,1.02 ± 0.051
same,NP40-soluble protein abundance,[2]; concentration: 4mM,1.02 ± 0.043
same,NP40-soluble protein abundance,[2]; concentration: 6mM,1.03 ± 0.051
same,NP40-soluble protein abundance,[2]; concentration: 8mM,1.04 ± 0.058
same,NP40-soluble protein abundance,[2]; concentration: 10mM,1.06 ± 0.048
same,NP40-soluble protein abundance,[3]; concentration: 1mM,1.03 ± 0.099
same,NP40-soluble protein abundance,[3]; concentration: 2mM,1.01 ± 0.11
same,NP40-soluble protein abundance,[3]; concentration: 4mM,1.01 ± 0.067
same,NP40-soluble protein abundance,[3]; concentration: 6mM,0.952 ± 0.088
same,NP40-soluble protein abundance,[3]; concentration: 8mM,0.997 ± 0.048
same,NP40-soluble protein abundance,[3]; concentration: 10mM,1.02 ± 0.095
same,NP40-soluble protein abundance,[4]; concentration: 1mM,0.9738 ± 0.0087
same,NP40-soluble protein abundance,[4]; concentration: 2mM,0.964 ± 0.019
same,NP40-soluble protein abundance,[4]; concentration: 4mM,0.953 ± 0.032
same,NP40-soluble protein abundance,[4]; concentration: 6mM,1 ± 0.048
same,NP40-soluble protein abundance,[4]; concentration: 8mM,0.937 ± 0.03
same,NP40-soluble protein abundance,[4]; concentration: 10mM,0.925 ± 0.026
same,NP40-soluble protein abundance,[5]; concentration: 1mM,0.945 ± 0.025
same,NP40-soluble protein abundance,[5]; concentration: 2mM,0.984 ± 0.034
same,NP40-soluble protein abundance,[5]; concentration: 4mM,0.976 ± 0.011
same,NP40-soluble protein abundance,[5]; concentration: 6mM,0.944 ± 0.025
same,NP40-soluble protein abundance,[5]; concentration: 8mM,0.965 ± 0.019
same,NP40-soluble protein abundance,[5]; concentration: 10mM,0.974 ± 0.018
same,NP40-soluble protein abundance,[6]; concentration: 1mM,1.17 ± 0.088
same,NP40-soluble protein abundance,[6]; concentration: 2mM,1.25 ± 0.11
same,NP40-soluble protein abundance,[6]; concentration: 4mM,1.22 ± 0.072

# Reformatted tab-delimited: entries from further up.
structure (smiles)	measurement	setting	value
Nc1ncnc2c1ncn2[C@@H]1O[C@H](COP(=O)(O)OP(=O)(O)OP(=O)(O)O)[C@@H](O)[C@H]1O [adenosine triphosphate]	NP40-soluble protein abundance	[2]; concentration: 2mM	1.02 ± 0.051
same	NP40-soluble protein abundance	[2]; concentration: 4mM	1.02 ± 0.043
